The target of this assay is T1, GST:NDP52 (human) (UniProt Q13137).
T1 sequence: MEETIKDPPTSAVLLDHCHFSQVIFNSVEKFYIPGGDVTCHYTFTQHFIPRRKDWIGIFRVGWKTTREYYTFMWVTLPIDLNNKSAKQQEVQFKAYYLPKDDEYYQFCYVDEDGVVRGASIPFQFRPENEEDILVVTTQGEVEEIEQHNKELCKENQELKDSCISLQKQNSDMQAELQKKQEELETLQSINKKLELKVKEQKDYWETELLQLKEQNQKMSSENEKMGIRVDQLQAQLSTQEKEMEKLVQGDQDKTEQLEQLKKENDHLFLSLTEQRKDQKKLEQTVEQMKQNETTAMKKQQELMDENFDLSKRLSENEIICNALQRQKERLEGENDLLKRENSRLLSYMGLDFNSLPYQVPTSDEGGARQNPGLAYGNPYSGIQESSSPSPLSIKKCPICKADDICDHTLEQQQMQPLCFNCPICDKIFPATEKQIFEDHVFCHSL
The experiment in a line: pull-down; GST-based LUMIER: GST fusion from E. coli immobilised on glutathione 4b Sepharose beads, incubated with lysate of transfected HEK293ET cells expressing the Renilla luciferase-tagged protein, 2 h at 4°C, four washes, eluted with 20 mM glutathione, luciferase activity as fold binding against GST only; only the target purified.

These are yes or no findings as the source states them, for the method shown. In cells and extracts the contact can be indirect. Tags and fused reporters may be left off the sequences shown.

B1: Luciferase-ULK2 (enzyme, UniProt Q8IYT8 1-1036)
chain: MEVVGDFEYSKRDLVGHGAFAVVFRGRHRQKTDWEVAIKSINKKNLSKSQILLGKEIKILKELQHENIVALYDVQELPNSVFLVMEYCNGGDLADYLQAKGTLSEDTIRVFLHQIAAAMRILHSKGIIHRDLKPQNILLSYANRRKSSVSGIRIKIADFGFARYLHSNMMAATLCGSPMYMAPEVIMSQHYDAKADLWSIGTVIYQCLVGKPPFQANSPQDLRMFYEKNRSLMPSIPRETSPYLANLLLGLLQRNQKDRMDFEAFFSHPFLEQGPVKKSCPVPVPMYSGSVSGSSCGSSPSCRFASPPSLPDMQHIQEENLSSPPLGPPNYLQVSKDSASTSSKNSSCDTDDFVLVPHNISSDHSCDMPVGTAGRRASNEFLVCGGQCQPTVSPHSETAPIPVPTQIRNYQRIEQNLTSTASSGTNVHGSPRSAVVRRSNTSPMGFLRPGSCSPVPADTAQTVGRRLSTGSSRPYSPSPLVGTIPEQFSQCCCGHPQGHDSRSRNSSGSPVPQAQSPQSLLSGARLQSAPTLTDIYQNKQKLRKQHSDPVCPSHTGAGYSYSPQPSRPGSLGTSPTKHLGSSPRSSDWFFKTPLPTIIGSPTKTTAPFKIPKTQASSNLLALVTRHGPAEEQSKDGNEPRECAHCLLVQGSERQRAEQQSKAVFGRSVSTGKLSDQQGKTPICRHQGSTDSLNTERPMDIAPAGACGGVLAPPAGTAASSKAVLFTVGSPPHSAAAPTCTHMFLRTRTTSVGPSNSGGSLCAMSGRVCVGSPPGPGFGSSPPGAEAAPSLRYVPYGASPPSLEGLITFEAPELPEETLMEREHTDTLRHLNVMLMFTECVLDLTAMRGGNPELCTSAVSLYQIQESVVVDQISQLSKDWGRVEQLVLYMKAAQLLAASLHLAKAQIKSGKLSPSTAVKQVVKNLNERYKFCITMCKKLTEKLNRFFSDKQRFIDEINSVTAEKLIYNCAVEMVQSAALDEMFQQTEDIVYRYHKAALLLEGLSRILQDPADIENVHKYKCSIERRLSALCHSTATV
For the molecule B1, the binding result is “no binding”.

The values are drawn from publication PMC6477152 (2019).
